In PMC4199500 one finds binding data, which are given here for one substance.

Chains of the proteins cited; added tags and fusions are not shown.
UniProt Q13148: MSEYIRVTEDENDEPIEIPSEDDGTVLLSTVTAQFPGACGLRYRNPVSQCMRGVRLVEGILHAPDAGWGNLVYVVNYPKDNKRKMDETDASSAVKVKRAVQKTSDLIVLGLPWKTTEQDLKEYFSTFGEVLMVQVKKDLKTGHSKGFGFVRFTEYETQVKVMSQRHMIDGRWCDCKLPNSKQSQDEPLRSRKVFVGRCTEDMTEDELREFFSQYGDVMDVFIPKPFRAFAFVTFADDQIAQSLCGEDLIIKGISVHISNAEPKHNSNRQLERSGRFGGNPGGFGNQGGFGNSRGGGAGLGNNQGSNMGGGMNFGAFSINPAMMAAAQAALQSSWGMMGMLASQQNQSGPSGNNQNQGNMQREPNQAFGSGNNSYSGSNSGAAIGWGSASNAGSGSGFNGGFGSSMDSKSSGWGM
UniProt O43524: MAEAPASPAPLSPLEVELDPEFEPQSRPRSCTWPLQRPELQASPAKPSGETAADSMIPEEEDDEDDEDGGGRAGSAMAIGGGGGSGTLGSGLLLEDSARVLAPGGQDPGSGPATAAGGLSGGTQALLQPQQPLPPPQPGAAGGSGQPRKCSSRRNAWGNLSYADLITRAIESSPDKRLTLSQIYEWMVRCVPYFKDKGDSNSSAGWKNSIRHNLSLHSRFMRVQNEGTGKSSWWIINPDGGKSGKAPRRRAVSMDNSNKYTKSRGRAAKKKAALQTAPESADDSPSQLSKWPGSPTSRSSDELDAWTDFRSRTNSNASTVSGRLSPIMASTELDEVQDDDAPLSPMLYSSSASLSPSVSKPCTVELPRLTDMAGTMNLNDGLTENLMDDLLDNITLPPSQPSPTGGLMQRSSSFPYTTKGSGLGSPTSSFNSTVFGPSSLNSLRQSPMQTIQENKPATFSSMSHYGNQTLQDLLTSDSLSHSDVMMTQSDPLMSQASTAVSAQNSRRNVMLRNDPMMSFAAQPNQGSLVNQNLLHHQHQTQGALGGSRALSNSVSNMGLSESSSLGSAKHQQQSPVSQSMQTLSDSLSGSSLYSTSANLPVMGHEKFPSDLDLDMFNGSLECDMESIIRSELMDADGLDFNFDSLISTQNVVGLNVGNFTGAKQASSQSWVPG

The assay addresses Myc-tagged TDP-43 (transactive response DNA-binding protein, TARDBP) (human) (UniProt Q13148). Put plainly: co-IP; HEK293T cells co-transfected with Myc-TDP-43 and Flag-FOXO3a or Flag-FOXO3aAAA; anti-Myc (TDP-43) antibody for the pull-down, western blotting with anti-Myc and anti-Flag. (In general: Immunoblotting shows a protein as a band on a membrane.)

No constants are given. Whether binding was seen depends on the method and setting. Binding seen in cells or lysates may run through a third protein.

For “Flag-tagged FOXO3a (from UniProt O43524 1-673)”, the binding entry is on record as “no binding”.
